Source: the supplement of paper PMC4862054
Most entries show no effect beyond the scatter of the controls.

What was measured:
Experiment in all cases: normalised response (% of control), CellTox Green; higher = less cell death (100 = DMSO, 0 = benzethonium chloride kill control)
Details in all cases: incubation time: 72 h
[1] = system: MCF-10A
Description: (§1)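 DSRT, 72 h incubation, CellTox Green / CellTiter-Glo readout. Signal is normalised to DMSO and benzethonium chloride controls. Value is the normalised response at dose 2.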

[2] = system: MDA-MB-436
Description: as §1

[3] = system: DU-4475
Description: as §1

[4] = system: HCC1143
Description: as §1

[5] = system: HCC1599
Description: as §1

[6] = system: BT-549
Description: as §1

[7] = system: CAL-148
Description: as §1

[8] = system: MDA-MB-453
Description: as §1

[9] = system: MDA-MB-231
Description: as §1

[10] = system: MDA-MB-468
Description: as §1

[11] = system: Hs578T
Description: as §1

[12] = system: BT-474
Description: as §1

[13] = system: HDQ-P1
Description: as §1

[14] = system: CAL-51
Description: as §1

[15] = system: CAL-120
Description: as §1

[16] = system: MFM-223
Description: as §1

[17] = system: CAL-85-1
Description: as §1

[18] = system: HCC1937
Description: as §1

Row | Compound | normalised response [1] [%] | normalised response [2] [%] | normalised response [3] [%] | normalised response [4] [%] | normalised response [5] [%] | normalised response [6] [%] | normalised response [7] [%] | normalised response [8] [%] | normalised response [9] [%] | normalised response [10] [%] | normalised response [11] [%] | normalised response [12] [%] | normalised response [13] [%] | normalised response [14] [%] | normalised response [15] [%] | normalised response [16] [%] | normalised response [17] [%] | normalised response [18] [%]
2 | CCCC(CCC)C(=O)O [Valproic acid] (1000 nM) | 107 | 66.3 | 99.8 | 100 | 125 | 108 | 110 | 78.5 | 113 | 115 | 126 | 105 | 88 | 88.9 | 103 | 99.5 | 110 | 115
3 | COCC[n+]1c2c(n(Cc3cnccn3)c1C)C(=O)c1ccccc1C2=O [YM155] (10 nM) | 60.9 | 89.3 | 103 | 40.5 | 93.5 | 104 | 83.7 | 99.2 | 76.2 | 50.6 | 119 | 83.5 | 109 | 83.7 | 26.4 | 99.5 | 11.1 | 71.6
